Results reported in patent US8268848B2, “Cyclopropane compound” (Eisai R&D Management Co., Ltd., priority 2010, dated 2012).
Some results were stated once for a whole list of compounds, not compound by compound.

Test system: mice (C57BL/6NCrlCrLj)
Experiment: Sleep experiment (EEG/EMG) in mice
Assay type: in vivo
Conditions: oral, doses 0.3 to 100 mg/kg, accumulated sleep time within three hours after administration
Protocol: As a method for measuring the influence of the present compound on sleep time, electroencephalogram (EEG) and electromyogram (EMG) measurements were carried out in mice (C57BL/6NCrlCrLj).
In order to measure brain waves and muscle signals, EEG and EMG electrode implantation was performed on individual mice, and the mice were then housed in a state in which they could freely move and habituate in individual recording cages for 1 week or longer. Thereafter, amplified EEG and EMG signals were digitally recorded.
Mice received either oral administration of vehicle or test compound in vehicle, after which sleep/wake behavior of mice was recorded for 3 hours.
For sleep analysis, automatic analysis software from Kissei Comtec Co., Ltd. was used to analyze EEG frequency and EMG activity signals in detail and to determine sleep and wake states. Thereafter, accumulated sleeping time over 3 hours was calculated.
The effect of the compound to increase sleep time was evaluated as the difference between sleeping time on the vehicle-administration day and the sleep time on the subsequent drug-administration day.
The minimum effective dose (MED; mg/kg) was obtained from accumulated sleep time of mice with three hours after the administration.

`Cc1ncc(OC[C@@]2(c3cc(F)cc(F)c3)C[C@H]2C(=O)Nc2cc(C)c(F)cn2)c(C)n1` [Example 129, (1R,2S)-2-(3,5-difluorophenyl)-2-{[(2,4-dimethylpyrimidin-5-yl)oxy]methyl}-N-(5-fluoro-4-methylpyridin-2-yl)cyclopropanecarboxamide] was tested, and the “minimum effective dose (MED)” value was 1 to 3 mg/kg.
